Test results published in the supplement of paper PMC9226226.
Values joined by “and” are separate entries in the source; they are usually repeats but may differ in a detail not shown here. Equal entries are not always repeated. Some of the results follow. Some well-known active drugs show little effect in this data set, so a weak value is uncertain.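 Prematurely aging human mesenchymal stem cells without the Werner syndrome gene were monitored by automated live-cell imaging over three biological repeats. The top twenty drugs for increasing growth versus vehicle moved forward; no fixed cutoff was specified.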

System: Werner syndrome hMSCs (WRN-/-)
Experiment: relative cell density (fold change vs vehicle control); higher = more proliferation (geroprotective)
Settings: concentration (umol/L): 1, 6 days

SMILES	relative cell density (vehicle: DMSO)	relative cell density (vehicle: Water)
CCOC(=O)Nc1ccc(NCc2ccc(F)cc2)nc1N	1.03	
COCC(=O)Nc1c(I)c(C(=O)NCC(O)CO)c(I)c(C(=O)N(C)CC(O)CO)c1I (configuration not stated)	1.3	
NC(CO)C(=O)NNCc1ccc(O)c(O)c1O (configuration not stated)	1.24	
C[C@H]1COc2c(N3CCN(C)CC3)c(F)cc3c(=O)c(C(=O)O)cn1c23	1.27 and 1.24	
CCCC(=O)OCOC(=O)C1=C(C)NC(C)=C(C(=O)OC)C1c1cccc(Cl)c1Cl (configuration not stated)	1.06	
CN(C/C=C/C#CC(C)(C)C)Cc1cccc2ccccc12	1.09 and 1.03	
Nc1nc(O)c2ncn(CCC(CO)CO)c2n1	1.11	
Fc1ccc([C@@H]2CCNC[C@H]2COc2ccc3c(c2)OCO3)cc1	1.03	
Clc1ccc(Nc2nnc(Cc3ccncc3)c3ccccc23)cc1	1.18	
COC(=O)c1ccc2c(C(=Nc3ccc(N(C)C(=O)CN4CCN(C)CC4)cc3)c3ccccc3)c(O)[nH]c2c1	0.877	
CCOC(=O)[C@H](CCc1ccccc1)N[C@@H](C)C(=O)N1Cc2cc(OC)c(OC)cc2C[C@H]1C(=O)O	1.17	
C[N+](C)(C)CCO.[Cl-]	1.01	
C/C=C1\[C@H]2C=C(C)C[C@]1(N)c1ccc(=O)[nH]c1C2		0.889
O=c1[nH]cnc2[nH]ncc12	1.07	
O=C(O)CSCC(=O)NC1CCSC1=O (configuration not stated)	1.06	
COc1cc(/C=C/C(=O)CC(=O)/C=C/c2ccc(O)c(OC)c2)ccc1O	1.07	
CC(C)CN(C[C@@H](O)[C@H](Cc1ccccc1)NC(=O)O[C@H]1CO[C@H]2OCC[C@H]21)S(=O)(=O)c1ccc(N)cc1	1.1	
NCC[C@H](O)C(=O)N[C@@H]1C[C@H](N)[C@@H](O[C@H]2O[C@H](CN)[C@@H](O)[C@H](O)[C@H]2O)[C@H](O)[C@H]1O[C@H]1O[C@H](CO)[C@@H](O)[C@H](N)[C@H]1O		1.04 and 1.02
O=C1c2cccc3c2[C@H](CCC3)CN1[C@@H]1CN2CCC1CC2		0.944
CC(=O)Oc1ccccc1C(=O)O.CC(=O)Oc1ccccc1C(=O)O.NC(N)=O	1.06	
CC/C(=C(\c1ccccc1)c1ccc(OCCN(C)C)cc1)c1ccccc1	1.11 and 1.07	
CCc1oc2ccccc2c1C(=O)c1cc(Br)c(O)c(Br)c1	0.98	
NCc1ccc(S(N)(=O)=O)cc1	0.995 and 1.18	
CN[C@@H]1[C@H](O[C@H]2[C@H](O[C@H]3[C@H](O)[C@@H](O)[C@H](NC(=N)N)[C@@H](O)[C@@H]3NC(=N)N)O[C@@H](C)[C@]2(O)CO)O[C@@H](CO)[C@H](O)[C@H]1O		0.909

SMILES	relative cell density (vehicle: DMSO)	relative cell density (vehicle: Water)
CC(C)(C)NCC(O)c1cc(O)cc(O)c1 (configuration not stated)		0.742
CCOC(=O)[N-]c1c[n+](N2CCOCC2)no1	1.19	
CC[N+](CC)(CC)CCOc1cccc(OCC[N+](CC)(CC)CC)c1OCC[N+](CC)(CC)CC	1.02	
C=C(c1ccc(C(=O)O)cc1)c1cc2c(cc1C)C(C)(C)CCC2(C)C	1.27	
CC(C(=O)O)c1ccc(C(=O)c2cccs2)cc1 (configuration not stated)	0.985	
COc1cc2ncnc(Nc3ccc(F)c(Cl)c3)c2cc1OCCCN1CCOCC1	0.992	
CN1CCN(c2nc(C3=C(c4c[nH]c5ccccc45)C(=O)NC3=O)c3ccccc3n2)CC1	0.997	
CN1CCC[C@@H]1CCO[C@](C)(c1ccccc1)c1ccc(Cl)cc1	1.1	
CCOc1ccc(NC(C)=O)cc1	1.14	
CC(C)[C@H](N)C(=O)OCC(CO)OCn1cnc2c(=O)[nH]c(N)nc21 (some centres not stated)	0.914	
O=C(O)c1ccccc1	0.962	
CC[C@@H]([C@H](C)O)n1ncn(-c2ccc(N3CCN(c4ccc(OC[C@@H]5CO[C@@](Cn6cncn6)(c6ccc(F)cc6F)C5)cc4)CC3)cc2)c1=O	0.797	
COC(=O)[C@]12CCC(C)(C)C[C@H]1[C@H]1C(=O)C=C3[C@@]4(C)C=C(C#N)C(=O)C(C)(C)[C@@H]4CC[C@@]3(C)[C@]1(C)CC2	0.186	
CCCCC[C@H](O)/C=C/[C@H]1[C@H](O)CC(=O)[C@@H]1CCCCCCC(=O)O	0.98	
CC(C)Cc1ccc(C(C)C(=O)O)cc1 (configuration not stated)	1.11	0.938
COc1ccc(CN2CCN(C(c3ccc(F)cc3)c3ccc(F)cc3)CC2)c(OC)c1OC	1.14	
CCc1ccc(C(=O)C(C)CN2CCCCC2)cc1 (configuration not stated)	1.03	
Nc1ccc(S(=O)(=O)Nc2cncc(Cl)n2)cc1	1.34	
Cc1cc(N2CCN([C@@H]3CN[C@H](C(=O)N4CCSC4)C3)CC2)n(-c2ccccc2)n1	1.27	
Nc1nc2[nH]cc(CCc3ccc(C(=O)N[C@@H](CCC(=O)O)C(=O)O)cc3)c2c(=O)[nH]1		0.576 and 1.02
COCCc1ccc(OCC(O)CNC(C)C)cc1 (configuration not stated)	0.991	
CCN1CCN(Cc2ccc(Nc3ncc(F)c(-c4cc(F)c5nc(C)n(C(C)C)c5c4)n3)nc2)CC1	1.33	
COc1ccc(C(=O)c2ccccc2O)c(O)c1	1.09	
O=C(O)C1(C(=O)O)CCC1.[NH2-].[NH2-].[Pt+2]		0.741

SMILES	relative cell density (vehicle: DMSO)	relative cell density (vehicle: Water)
Cc1cnc(C(=O)O)c[n+]1[O-]	0.953	
CCCCNc1ccc(C(=O)OCCN(C)C)cc1	1.05	
CCCCC(=O)N(Cc1ccc(-c2ccccc2-c2nn[nH]n2)cc1)C(C(=O)O)C(C)C.CCOC(=O)C(C)CC(Cc1ccc(-c2ccccc2)cc1)NC(=O)CCC(=O)O (configuration not stated)	0.871	
CCCCCOC(=O)Nc1nc(=O)n([C@@H]2O[C@H](C)[C@@H](O)[C@H]2O)cc1F	1.14	
CCN(CC)CCOc1ccc(C(=C(Cl)c2ccccc2)c2ccccc2)cc1	1.21	
C=C[C@@H]1C[C@]1(NC(=O)[C@@H]1C[C@@H]2CN1C(=O)[C@H](C(C)(C)C)NC(=O)O[C@@H]1C[C@H]1CCCCCc1nc3ccc(OC)cc3nc1O2)C(=O)NS(=O)(=O)C1CC1	1.46	
C[C@]1(COc2ccc(N3CCC(Oc4ccc(OC(F)(F)F)cc4)CC3)cc2)Cn2cc([N+](=O)[O-])nc2O1	1.31	
CN1CCC(=C2c3ccccc3CCc3sccc32)CC1	1.08	
COc1ncc(-c2ccc3nccc(-c4ccnnc4)c3c2)cc1NS(=O)(=O)c1ccc(F)cc1F	0.2	
CN1CCOC(c2ccccc2)c2ccccc2C1 (configuration not stated)		1.04
O=C1[C@H](CC[C@H](O)c2ccc(F)cc2)[C@@H](c2ccc(O)cc2)N1c1ccc(F)cc1	0.919	
O=C(O)COCCN1CCN([C@H](c2ccccc2)c2ccc(Cl)cc2)CC1	1.51	
Cc1cnc(C(=O)NCCc2ccc(S(=O)(=O)NC(=O)NC3CCCCC3)cc2)cn1	1.03	
COc1ccc2c(O[C@@H]3C[C@H]4C(=O)N[C@]5(C(=O)NS(=O)(=O)C6CC6)C[C@H]5/C=C\CCCCN(C)C(=O)[C@@H]4C3)cc(-c3nc(C(C)C)cs3)nc2c1C	1.21	
CC(O)(P(=O)(O)O)P(=O)(O)O		1.13
COC(=O)C1=C(C)NC(C)=C(C(=O)OCC(C)C)C1c1ccccc1[N+](=O)[O-] (configuration not stated)	0.867	
Oc1cc(O)c(Cl)cn1	1.24	
CCCC(=O)[O-].[Na+]		1.01
COC(=O)C1=C(C)NC(C)=C(C(=O)OCCN(C)Cc2ccccc2)C1c1cccc([N+](=O)[O-])c1 (configuration not stated)	1.02	
OC[C@H]1O[C@@H](c2ccc(Cl)c(Cc3ccc(O[C@H]4CCOC4)cc3)c2)[C@H](O)[C@@H](O)[C@@H]1O	1.05	
Cc1ccccc1C(OCCN(C)C)c1ccccc1 (configuration not stated)	1.03	
CNCc1cc(-c2ccccc2F)n(S(=O)(=O)c2cccnc2)c1	1.02	
NCCCC(N)(C(=O)O)C(F)F (configuration not stated)		1.38
O=C1CCc2ccc(OCCCCN3CCN(c4cccc(Cl)c4Cl)CC3)cc2N1	1.26	

SMILES	relative cell density (vehicle: DMSO)	relative cell density (vehicle: Water)
CN(C)CCOC(c1ccc(Cl)cc1)c1ccccn1 (configuration not stated)	0.0301	
CN(C)CCc1c[nH]c2ccc(CS(=O)(=O)N3CCCC3)cc12	1.09	
CN1CCN2c3ccccc3Cc3ccccc3C2C1 (configuration not stated)	1.07	
CCCCCCCCOc1ccccc1C(=O)Nc1ccc(C(=O)OCC[N+](C)(CC)CC)cc1	1.17	
CCCCc1ncc(/C=C(\Cc2cccs2)C(=O)O)n1Cc1ccc(C(=O)O)cc1	1.24	
O=C(O)CCC(=O)c1ccc(-c2ccccc2)cc1	1.2	
O=C1c2c(O)ccc(O)c2C(=O)c2c(NCCNCCO)ccc(NCCNCCO)c21	0.0902	
CCOC(=O)C1=C(C)NC(C)=C(C(=O)OC)C1c1cccc(Cl)c1Cl (configuration not stated)	1.4	
C[C@H](CCC(=O)O)[C@H]1CC[C@H]2[C@@H]3C(=O)C[C@@H]4CC(=O)CC[C@]4(C)[C@H]3CC(=O)[C@]12C	1.32	
COC(=O)/C=C/C(=O)OC	1.05	
O=C(NC(Cc1cc(=O)[nH]c2ccccc12)C(=O)O)c1ccc(Cl)cc1 (configuration not stated)	1.11	
CCOC(CN1CCN(CC(C)C(=O)c2ccccc2)CC1)c1ccccc1 (configuration not stated)		0.715
OCC(CO)N[C@H]1C[C@](O)(CO)[C@@H](O)[C@H](O)[C@H]1O	1.08	
CCCCC(=O)N(Cc1ccc(-c2ccccc2-c2nnn[nH]2)cc1)[C@H](C(=O)O)C(C)C	1.33	
COc1cc(Nc2ncc3c(n2)-c2ccc(Cl)cc2C(c2c(F)cccc2OC)=NC3)ccc1C(=O)O	0.525	
Cc1ccc(Nc2nccc(N(C)c3ccc4c(C)n(C)nc4c3)n2)cc1S(N)(=O)=O	0.974 and 1.24	
CCOC(N)=O	1.23	
O=C1c2cccc(O)c2C(=O)c2c(O)cccc21	1.4	
Cc1c(C(=O)Nc2ccc(N3C[C@@H](C)O[C@@H](C)C3)nc2)cccc1-c1ccc(OC(F)(F)F)cc1	1.16	
O=C1O[C@H]([C@@H](O)CO)C(O)=C1O	0.988	
Clc1ccc(C(c2ccccc2Cl)C(Cl)Cl)cc1 (configuration not stated)	1.18	
Cc1cccc(C)c1OCC(=O)N[C@@H](Cc1ccccc1)[C@@H](O)C[C@H](Cc1ccccc1)NC(=O)[C@H](C(C)C)N1CCCNC1=O	1.31	
O=C(O)c1ccccc1Nc1cccc(C(F)(F)F)c1	1.06	
O=C1Nc2ccc(Cl)cc2[C@@](C#CC2CC2)(C(F)(F)F)O1	1.25	
